Experimental findings from article PMC5082905, “Identification of Residues in the Lipopolysaccharide ABC Transporter That Coordinate ATPase Activity with Extractor Function” (mBio, 2016) are described below.

Amino acid sequences for entries named in this document (tags omitted). A change or cut given only in a name is not applied to a line headed by its entry.
UniProt P0ADV9: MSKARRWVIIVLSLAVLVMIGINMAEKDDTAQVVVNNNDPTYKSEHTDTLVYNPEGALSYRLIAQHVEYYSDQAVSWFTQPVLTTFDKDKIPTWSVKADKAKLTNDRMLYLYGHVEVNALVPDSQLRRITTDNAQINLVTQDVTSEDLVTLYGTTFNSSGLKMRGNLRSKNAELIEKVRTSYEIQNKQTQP

The experiment has as its target LptC-His7 (E. coli) (UniProt P0ADV9). Nature of the experiment: affinity co-purification; LptB2FG-LptC-His7 complex variants purified from E. coli through LptC-His7; Coomassie blue-stained denaturing gel.

No constants are given. Whether binding was seen depends on the method and setting. Binding seen in cells or lysates may run through a third protein. A result given as binding can be weak or reduced; the word gives no strength.

B1: LptB^WT (enzyme, E. coli, UniProt P0A9V1 1-241, looked up)
chain: MATLTAKNLAKAYKGRRVVEDVSLTVNSGEIVGLLGPNGAGKTTTFYMVVGIVPRDAGNIIIDDDDISLLPLHARARRGIGYLPQEASIFRRLSVYDNLMAVLQIRDDLSAEQREDRANELMEEFHIEHLRDSMGQSLSGGERRRVEIARALAANPKFILLDEPFAGVDPISVIDIKRIIEHLRDSGLGVLITDHNVRETLAVCERAYIVSQGHLIAHGTPTEILQDEHVKRVYLGEDFRL
As for B1, the binding result was “binds”.

B2: LptB^R91S (enzyme, UniProt P0A9V1 1-241)
chain: MATLTAKNLAKAYKGRRVVEDVSLTVNSGEIVGLLGPNGAGKTTTFYMVVGIVPRDAGNIIIDDDDISLLPLHARARRGIGYLPQEASIFSRLSVYDNLMAVLQIRDDLSAEQREDRANELMEEFHIEHLRDSMGQSLSGGERRRVEIARALAANPKFILLDEPFAGVDPISVIDIKRIIEHLRDSGLGVLITDHNVRETLAVCERAYIVSQGHLIAHGTPTEILQDEHVKRVYLGEDFRL
As to B2, the binding result is reported as “binds”.
